These are yes or no findings as the source states them, for the method shown. Binding can be weak; no strength is given.
B1: Ap1m1 (domain or fragment, UniProt P35585 118-423)
chain: MDFGYPQTTDSKILQEYITQEGHKLETGAPRPPATVTNAVSWRSEGIKYRKNEVFLDVIEAVNLLVSANGNVLRSEIVGSIKMRVFLSGMPELRLGLNDKVLFDNTGRGKSKSVELEDVKFHQCVRLSRFENDRTISFIPPDGEFELMSYRLNTHVKPLIWIESVIEKHSHSRIEYMVKAKSQFKRRSTANNVEIHIPVPNDADSPKFKTTVGSVKWVPENSEIVWSVKSFPGGKEYLMRAHFGLPSVEAEDKEGKPPISVKFEIPYFTTSGIQVRYLKIIEKSGYQALPWVRYITQNGDYQLRTQ
B2: Gnl3l (domain or fragment, UniProt Q6PGG6 8-268)
chain: NKKPGKGSKGCKKPARQNGKKVTSRPSSAPQIVHGNDHASREAELKKKRVEEMREKQQVAREQERQRHRTMESYCQDVLKRQQEFEQKEEVLQELNMFPQLDDEATRKAYYKEFRKVVEYSDVILEVLDARDPLGCRCFQMEETVLRAEGNKKLVLVLNKIDLVPKEIVEKWLEYLLNELPTVAFKASTQHHQVKNLTRCKVPVDQASESLLKSRACFGAENLMRVLGNYCRLGEVRGHIRVGVVGLPNVGKSSLINSLKR

Molecular target: CARP/ANIA-4
Experiment: two-hybrid; yeast two-hybrid screen (Hybrigenics): bait CARP/ANIA-4 in pB27 (N-LexA-CARP-C) against the Mouse Adult Brain_RP1 ULTImate Y2H library; 79.3 million possible interactions screened; hits classed by Global PBS

Row | Binder | binding
1 | B1 | binds
2 | B2 | binds
